{"sequences": {"note": "By UniProt entry, the sequences of proteins in these tests, tags left out. Residues count along the entry.", "UniProt P42768, residues 201-321": "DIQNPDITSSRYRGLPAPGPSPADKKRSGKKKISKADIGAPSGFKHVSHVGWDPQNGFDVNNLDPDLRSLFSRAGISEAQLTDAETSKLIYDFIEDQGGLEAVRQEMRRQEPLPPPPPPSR", "UniProt P60953": "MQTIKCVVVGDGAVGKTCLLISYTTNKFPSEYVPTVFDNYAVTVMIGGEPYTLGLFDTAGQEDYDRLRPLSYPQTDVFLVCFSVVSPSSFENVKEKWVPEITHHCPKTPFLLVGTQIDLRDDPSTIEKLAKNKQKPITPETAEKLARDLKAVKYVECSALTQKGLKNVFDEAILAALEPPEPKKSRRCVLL"}, "source": "paper PMC5670207", "molecular_target": "GST-Wiskott-Aldrich Syndrome protein (WASP)-CRIB (UniProt P42768)", "experiment": "pull-down; GST fusion protein on Glutathione Sepharose 4B beads incubated overnight at 4 °C with lysates of SCP2 cells (stably infected with scrambled or EPHA4 shRNA, stimulated with TGF-β1 for different times); lysis buffer 50 mM Tris-HCl pH 7.5, 1% Triton X-100, 0.5% sodium deoxycholate, 0.1% SDS, 500 mM NaCl, 10 mM MgCl2; beads washed 4 times with cold binding buffer; Western blot with GTPase-specific antibodies; only the target purified", "note": "No constants are given. Whether binding was seen depends on the method and setting. In cells and extracts the contact can be indirect. Some binding calls cover weakened binding; strength is not graded here."}
{"substance": "Cdc42 (from UniProt P60953 1-191)", "values": [{"measurement": "binding", "value": "binds"}]}
